Assay [1] addresses FtsQ (58–276), periplasmic domain of E. coli FtsQ (Escherichia coli strain K-12) (UniProt P06136). Put plainly: SEC-MALS; FtsB (22–103) and FtsQ (58–276) singly and in a complex; Superdex S-75 10/300; 25 mM Tris pH 7.4, 100 mM NaCl, 1 mM DTT; both purified. On the technique in general: Size exclusion chromatography separates by hydrodynamic size, large species first.
Assay [2] has the same target. Kind of assay: AUC; velocity sedimentation, FtsB (22–103) and FtsQ (58–276) alone or mixed at 1 mg/ml; 50,000 rpm, 20°C; 25 mM Tris pH 7.4, 100 mM NaCl, 1 mM DTT; both purified.

Sequences of proteins named here, by UniProt entry; tags and fusion partners are left off. Residues count along the entry.
UniProt P06136, residues 58-276: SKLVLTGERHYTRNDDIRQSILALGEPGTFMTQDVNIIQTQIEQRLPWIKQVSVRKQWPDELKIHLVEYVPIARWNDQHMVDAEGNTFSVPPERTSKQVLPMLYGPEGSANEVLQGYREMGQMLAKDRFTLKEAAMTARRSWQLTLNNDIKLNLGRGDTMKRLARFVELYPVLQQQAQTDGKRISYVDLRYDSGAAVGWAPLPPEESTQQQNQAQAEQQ

No constants are given. Whether binding was seen depends on the method and setting.

For “FtsQ (58–276), periplasmic domain of E. coli FtsQ (from UniProt P06136 58-276) (domain or fragment)”, the binding result is given as “no binding” in assay [1] and “no binding (tested: 1 mg/ml)” in assay [2].

Source of the values: article PMC6134095.
